From article PMC8985225
Results are given in words; binding and its absence hold for the method and conditions named. Some results given as binding are weak or reduced against the parent protein; the word gives no strength.

Protein sequences, listed by entry. Tags and fused reporters are not part of them.
UniProt P08413: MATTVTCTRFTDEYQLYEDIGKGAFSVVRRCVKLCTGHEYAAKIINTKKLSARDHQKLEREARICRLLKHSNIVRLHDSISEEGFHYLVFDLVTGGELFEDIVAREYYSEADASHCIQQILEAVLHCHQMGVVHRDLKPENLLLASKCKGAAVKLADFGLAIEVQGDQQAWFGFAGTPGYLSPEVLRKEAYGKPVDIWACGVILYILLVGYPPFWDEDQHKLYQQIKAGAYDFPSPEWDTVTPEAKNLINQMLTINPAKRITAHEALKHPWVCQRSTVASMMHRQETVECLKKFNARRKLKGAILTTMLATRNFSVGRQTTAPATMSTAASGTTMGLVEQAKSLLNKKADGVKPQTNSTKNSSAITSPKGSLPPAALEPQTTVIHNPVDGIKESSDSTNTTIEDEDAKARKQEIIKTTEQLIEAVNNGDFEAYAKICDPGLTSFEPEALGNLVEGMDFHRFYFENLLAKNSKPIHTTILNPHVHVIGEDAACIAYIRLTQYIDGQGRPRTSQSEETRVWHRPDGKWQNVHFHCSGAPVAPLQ

Legend:
[1] = biological target: Ca^2+/CaM-dependent kinase II β (CaMKIIβ) holoenzyme (rodent) (UniProt P08413); experiment: co-sedimentation; self-association assay as above (0.5 μM CaMKII, Ca^2+/CaM, ADP, pH 6.4); 100,000 × g pellet, immunoblot; clustering of holoenzymes; both purified
[2] = biological target: Ca^2+/CaM-dependent kinase II β (CaMKIIβ) holoenzyme (rodent) (UniProt P08413); experiment: negative-stain single-particle EM; same specimens; focused 2D classification of the kinase domains with the hub domain masked away (13.5 nm inner mask); kinase domain dimers within the holoenzyme; both purified

For “Ca^2+/CaM-dependent kinase II β (CaMKIIβ) holoenzyme (from UniProt P08413 1-542)”, the binding [1] was “binds” and the binding [2] was “binds”.
